In PubChem BioAssay AID192 (DTP/NCI, 2004):
The list shows only some results of the screen, not a fair sample: it gathers tests that were run many times, whatever their T/C, doses with no T/C, and many T/C values between a quarter and a half above the control. Further doses and runs are listed elsewhere. T/C is the treated group as % of the vehicle group. Some doses have a count of surviving animals in place of a T/C: the source holds a T/C of zero for them, seemingly a mark for toxic or unscored doses. Some doses without a T/C left all or most animals alive at the check, yet need not have been tolerated: survival well below the control is almost never listed, so the zero probably covers shortened survival too. Survivors were counted at the toxicity check, usually on the fifth day, unless a day is given; later deaths do not show. Schedules are NCI's codes, read here as Q, the interval in days (D) or hours (H), X, the number of doses. Some doses were run more than once; their values stand side by side, smallest first. For survival time, the PubChem record calls one and a half times the control and up active, and a quarter to a half above the control has no call in these data; cut-offs in other NCI protocols can differ. Some T/C values are followed by the survivors on the day toxicity was checked, most often the fifth; where none is given, no animal had died by that day.

Test system: BDF1 mice, B16 melanoma ip, median survival T/C
Assay: NCI In Vivo Anticancer Drug Screen. Data for tumor model B16 Melanoma (intraperitoneal) in B6D2F1 (BDF1) mice
Conditions: T/C endpoint: median survival time, higher T/C = longer survival
Summary of the method: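 The ratio T/C compares compound-treated mice with vehicle-treated controls, using survival or tumor size as the endpoint in a transplantable tumor model.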

[1] = dose: 25.0 mg/kg/injection, schedule: Q01DX009 (ip), vehicle: Klucel (hydroxypropylcellulose) (HPC)
[2] = dose: 50.0 mg/kg/injection, schedule: Q01DX009 (ip), vehicle: Klucel (hydroxypropylcellulose) (HPC)
[3] = dose: 100.0 mg/kg/injection, schedule: Q01DX009 (ip), vehicle: Klucel (hydroxypropylcellulose) (HPC)
[4] = dose: 400.0 mg/kg/injection, schedule: Q01DX009 (ip), vehicle: saline with Tween-80

Structure (SMILES): NC1=NC(=S)C2N=C(N=Nc3ccc(C(=O)NC(CCC(=O)O)C(=O)O)cc3)N=C2N1 (configuration not stated)
- survivor count (dose: 3.12 mg/kg/injection, schedule: Q01DX009 (ip), vehicle: Klucel (hydroxypropylcellulose) (HPC)): 10 of 10
- survivor count (dose: 6.25 mg/kg/injection, schedule: Q01DX009 (ip), vehicle: Klucel (hydroxypropylcellulose) (HPC)): 10 of 10
- survivor count (dose: 12.5 mg/kg/injection, schedule: Q01DX009 (ip), vehicle: Klucel (hydroxypropylcellulose) (HPC)): 10 of 10
- survivor count [1]: 10 of 10
- survivor count [2]: 7 of 10
- survivor count [3]: 0 of 10

Structure (SMILES): CC(=O)[C@@]1(O)CC[C@H]2[C@@H]3C[C@H](C)C4=CC(=O)C=C[C@]4(C)[C@@]3(F)[C@@H](O)C[C@@]21C
- survivor count (dose: 12.0 mg/kg/injection, schedule: Q01DX009 (sc), vehicle: steroid suspending solution): 6 of 6

Structure (SMILES): N#CCCSC(=S)C1CCCC1=N (configuration not stated)
- survivor count [4]: 6 of 10

Structure (SMILES): CC12CCC(C1)C(C)(C)C2NCCCN1C(=O)c2ccc3c4c(ccc(c24)C1=O)C(=O)N(CCCNC1C2(C)CCC(C2)C1(C)C)C3=O (configuration not stated)
- survivor count [2]: 10 of 10
- survivor count [3]: 4 of 10

Structure (SMILES): C[C@@H]1CC[C@]2(C)CC[C@]3(C)C(=CC[C@@H]4[C@@]5(C)CC[C@@H](OC(=O)c6ccc(O)cc6)C(C)(C)[C@@H]5C[C@H](O)[C@]43C)[C@@H]2[C@H]1C(=O)O
- survivor count (dose: 0.2 mg/kg/injection, schedule: Q01DX009 (ip), vehicle: saline with Tween-80): 10 of 10

Structure (SMILES): CN=C1CN(O)C(c2ccccc2)=c2cc(Cl)ccc2=N1
- T/C (dose: 6.25 mg/kg/injection, schedule: Q01DX009 (ip), vehicle: saline): 126 % of control [9 of 10 alive]
- T/C (dose: 25.0 mg/kg/injection, schedule: Q01DX009 (ip), vehicle: saline): 144 % of control [9 of 10 alive]
- survivor count (dose: 50.0 mg/kg/injection, schedule: Q01DX009 (ip), vehicle: saline): 10 of 10
- survivor count (dose: 200.0 mg/kg/injection, schedule: Q01DX009 (ip), vehicle: saline): 4 of 10

Structure (SMILES): C=C(OC1C(C)=C2C(C1OC(=O)CCCCCCC)C(C)(OC(C)=O)CC(OC(=O)CCC)C1(O)C2OC(=O)C1(C)O)/C(C)=C/C (configuration not stated)
- survivor count (dose: 0.75 mg/kg/injection, schedule: Q01DX009 (ip), vehicle: Klucel (hydroxypropylcellulose) (HPC)): 9 of 10

Structure (SMILES): CCN(CC)C1CC(O[C@H]2C[C@](O)(C(C)=O)Cc3c(O)c4c(c(O)c32)C(=O)c2c(OC)cccc2C4=O)OC(C)C1O (some centres not stated)
- T/C (dose: 1.0 mg/kg/injection, schedule: Q01DX009 (ip), vehicle: water): 129 % of control
- T/C (dose: 2.0 mg/kg/injection, schedule: Q01DX009 (ip), vehicle: water): 127 % of control [9 of 10 alive]
- T/C (dose: 4.0 mg/kg/injection, schedule: Q01DX009 (ip), vehicle: water): 138 % of control [9 of 10 alive]
- survivor count (dose: 8.0 mg/kg/injection, schedule: Q01DX009 (ip), vehicle: water): 10 of 10
- survivor count (dose: 16.0 mg/kg/injection, schedule: Q01DX009 (ip), vehicle: water): 10 of 10

Structure (SMILES): Cc1c2ccc3ccccc3c2c[n+]2ccccc12
- survivor count (dose: 40.0 mg/kg/injection, schedule: Q01DX009 (ip), vehicle: Klucel (hydroxypropylcellulose) (HPC)): 0 of 10

Structure (SMILES): CCOC(=O)c1ccc(NC(=O)Nc2nccs2)cc1
- T/C (dose: 25.0 mg/kg/injection, schedule: Q01DX009 (ip), vehicle: saline with Tween-80): 114, 121, 135, 146 % of control
- T/C (dose: 50.0 mg/kg/injection, schedule: Q01DX009 (ip), vehicle: saline with Tween-80): 121, 131, 140 [9 of 10 alive], 147 % of control
- T/C (dose: 100.0 mg/kg/injection, schedule: Q01DX009 (ip), vehicle: saline with Tween-80): 129, 131, 140, 166 % of control
- T/C (dose: 200.0 mg/kg/injection, schedule: Q01DX009 (ip), vehicle: saline with Tween-80): 126, 143, 162, 167 % of control
- T/C [4]: 153 % of control [9 of 10 alive]
- survivor count [4]: 8 of 10, 9 of 10, 10 of 10

Structure (SMILES): C[C@@H]1CC[C@@]2(NC1)O[C@H]1C[C@H]3[C@@H]4CC=C5C[C@@H](O)CC[C@]5(C)[C@H]4CC[C@]3(C)[C@H]1[C@@H]2C
- survivor count [1]: 10 of 10
- survivor count [2]: 10 of 10

Structure (SMILES): CCC1(C(C)Br)OC2=C(CC(C#N)(C#N)C(C#N)(C#N)C2)O1 (configuration not stated)
- survivor count (dose: 150.0 mg/kg/injection, schedule: Q04DX003 (ip), vehicle: Klucel (hydroxypropylcellulose) (HPC)): 9 of 10
- survivor count (dose: 300.0 mg/kg/injection, schedule: Q04DX003 (ip), vehicle: Klucel (hydroxypropylcellulose) (HPC)): 5 of 10
